The supplement of paper PMC10689618
Counter-ions that a name gives are not always drawn. This is one part of the list. Single values are uncertain, as repeats are few or missing.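 Primary human fetal astrocytes engulfed labelled rat cortical synaptosomes, measured as a red/green ratio corrected for calcein live-cell signal and scaled to the plate median. Toxicity meant calcein falling over 30%; decreased phagocytosis meant below 70% of median above 5 µM.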

Columns and labels:
Human fetal astrocytes [1] = test: loss of total cells relative to no-compound high-control median (toxicity); higher = more toxic (fewer cells); conditions: 24 h
Human fetal astrocytes [2] = test: synaptosome phagocytosis (pHrodo/calcein intensity ratio) relative to plate median of data wells; higher = more phagocytosis; conditions: 24 h

Structure (SMILES) | loss of total cells (Human fetal astrocytes [1]; 1.39 µM) | loss of total cells (Human fetal astrocytes [1]; 2.78 µM) | loss of total cells (Human fetal astrocytes [1]; 5.56 µM) | loss of total cells (Human fetal astrocytes [1]; 11.11 µM) | loss of total cells (Human fetal astrocytes [1]; 22.22 µM) | synaptosome phagocytosis (Human fetal astrocytes [2]; 1.39 µM) | synaptosome phagocytosis (Human fetal astrocytes [2]; 2.78 µM) | synaptosome phagocytosis (Human fetal astrocytes [2]; 5.56 µM) | synaptosome phagocytosis (Human fetal astrocytes [2]; 11.11 µM) | synaptosome phagocytosis (Human fetal astrocytes [2]; 22.22 µM)
CCN(CC)CCOc1ccc(C(=C(Cl)c2ccccc2)c2ccccc2)cc1 | 2.1% | 23.4% | 23.7% | 85.6% | 101% | 90.4% | 72.4% | 60.9% | 13.9% | 0%
OC[C@H]1O[C@@H](OCCc2ccc(O)cc2)[C@H](O)[C@@H](O)[C@@H]1O | -3.3% | -4.7% | -8.8% | 29.1% | 14.8% | 115% | 105% | 127% | 114% | 138%
O=C1O[C@H]([C@@H](O)CO)C(O)=C1O | -15.3% | -38.9% | 5.6% | 45.6% | -7.2% | 116% | 109% | 118% | 179% | 120%
Cc1cn[nH]c1 [4-Methylpyrazole hydrochloride] | 12.1% | -33.3% | 18% | -11.5% | 5.9% | 133% | 103% | 133% | 72.6% | 76.8%
COc1ccc(-c2coc3c(OC)c(OC)cc(O)c3c2=O)cc1 | -11.2% | 2% | -19.8% | 15.5% | -22.6% | 110% | 89.2% | 103% | 96.8% | 122%
COc1ccc(-c2cc(=O)c3c(O)c(OC)c(OC)c(OC)c3o2)cc1 | -26.2% | 9.7% | 2.2% | 2% | -3% | 110% | 84.2% | 99.8% | 98.1% | 120%
COc1cccc(OC)c1C(=O)N[C@@H]1C(=O)N2[C@@H]1SC(C)(C)[C@@H]2C(=O)O | 8% | -20% | -13.9% | -0.3% | 55% | 71.8% | 118% | 92.4% | 117% | 122%
C[C@@H]1CC[C@@]2(OC1)O[C@H]1C[C@H]3[C@@H]4CC[C@H]5C[C@@H](O)CC[C@]5(C)[C@H]4C[C@@H](O)[C@]3(C)[C@H]1[C@@H]2C | -19.9% | 10% | -21.4% | -2.6% | -14.4% | 123% | 101% | 101% | 98.6% | 98.5%
CO[C@@]1(NC(=O)CSCC#N)C(=O)N2C(C(=O)O)=C(CSc3nnnn3C)CS[C@@H]21 | -14.9% | -11.3% | -2.1% | 6.3% | 17% | 114% | 97% | 110% | 119% | 99%
Cc1cc(-n2c(=O)[nH]c(=O)n(C)c2=O)ccc1Oc1ccc(SC(F)(F)F)cc1 | -35.5% | -10.3% | -9.9% | 22.6% | 3.4% | 79.8% | 103% | 105% | 104% | 99.8%
CC(C)NCC(O)COc1ccc(COCCOC(C)C)cc1 (stereo not given) | -29% | 25.4% | 6.2% | 42.3% | 6.5% | 133% | 172% | 74.9% | 135% | 94.2%
CC(=O)OC[C@@]1(O)C[C@@]23CC[C@@H]4c5ccoc5CC[C@@]4(C)[C@@H]2CC[C@@H]1C3 | -0.8% | -11.2% | -6.6% | 13.5% | 10.4% | 139% | 84.5% | 83.9% | 108% | 48.5%
Cc1cc(=O)n(-c2ccccc2)n1C | 2.5% | -9.5% | 2.7% | -17.2% | 12.5% | 118% | 101% | 98.4% | 131% | 92%
S=c1[nH]cnc2nc[nH]c12 | 2.1% | 1.7% | 3.5% | 9.5% | -17.9% | 111% | 98.9% | 61.4% | 97.9% | 81.4%
C[C@H]1COc2c(N3CCN(C)CC3)c(F)cc3c(=O)c(C(=O)O)cn1c23 | 17.7% | -30.2% | 13% | -4.3% | 12.1% | 141% | 98.9% | 115% | 88.5% | 105%
COc1cc(OC)c2c(=O)cc(-c3ccccc3)oc2c1 | -13.9% | 6.1% | -11.7% | -6.8% | -5.9% | 110% | 77.1% | 106% | 75.8% | 95.3%
COc1cc(-c2coc3cc(OCc4ccccc4)c(OC)c(O)c3c2=O)cc(OCc2ccccc2)c1OC | -22.8% | 2.7% | 39.7% | -5.2% | 24.8% | 109% | 113% | 93.9% | 111% | 145%
CC(=O)Nc1cccc(O)c1 | 1.8% | 8.3% | 10.1% | -7.1% | 2.3% | 82.6% | 82.8% | 118% | 138% | 119%
CC(C)=CCC/C(C)=C/COc1ccc2ccc(=O)oc2c1 | 1.6% | -12.6% | -5.1% | 14.9% | 14.8% | 138% | 96.8% | 80.5% | 85.3% | 133%
Cc1ccc(C(=O)c2ccc(CC(=O)O)n2C)cc1 | 25% | -12% | 22.1% | 12.3% | 3.3% | 94% | 66.4% | 79% | 31.5% | 105%

Shown in CSV form: entries from further up.
Structure (SMILES),loss of total cells (Human fetal astrocytes [1]; 1.39 µM),loss of total cells (Human fetal astrocytes [1]; 2.78 µM),loss of total cells (Human fetal astrocytes [1]; 5.56 µM),loss of total cells (Human fetal astrocytes [1]; 11.11 µM),loss of total cells (Human fetal astrocytes [1]; 22.22 µM),synaptosome phagocytosis (Human fetal astrocytes [2]; 1.39 µM),synaptosome phagocytosis (Human fetal astrocytes [2]; 2.78 µM),synaptosome phagocytosis (Human fetal astrocytes [2]; 5.56 µM),synaptosome phagocytosis (Human fetal astrocytes [2]; 11.11 µM),synaptosome phagocytosis (Human fetal astrocytes [2]; 22.22 µM)
OC[C@H]1O[C@@H](OCCc2ccc(O)cc2)[C@H](O)[C@@H](O)[C@@H]1O,-3.3%,-4.7%,-8.8%,29.1%,14.8%,115%,105%,127%,114%,138%
O=C1O[C@H]([C@@H](O)CO)C(O)=C1O,-15.3%,-38.9%,5.6%,45.6%,-7.2%,116%,109%,118%,179%,120%
Cc1cn[nH]c1 [4-Methylpyrazole hydrochloride],12.1%,-33.3%,18%,-11.5%,5.9%,133%,103%,133%,72.6%,76.8%
COc1ccc(-c2coc3c(OC)c(OC)cc(O)c3c2=O)cc1,-11.2%,2%,-19.8%,15.5%,-22.6%,110%,89.2%,103%,96.8%,122%
